Data published in patent US6111069A, “Polypeptides that include conformation-constraining groups which flank a protein-protein interaction site” (Virginia Commonwealth University, priority 1997, dated 2000).
Not every detail of the peptide structures is certain; ends, links or a residue may be inferred. Where a SMILES comes first, the peptide text is derived from it.

Test system: platelet aggregation
Assay: Inhibition of platelet aggregation initiated by collagen or ADP, overall statements
Assay type: cell-based

Compound: CC[C@H](C)[C@H](N)C(=O)N[C@@H](C)C(=O)N[C@@H](CCCNC(=N)N)C(=O)NCC(=O)N[C@@H](CC(=O)O)C(=O)N[C@@H](CCSC)C(=O)N[C@@H](CC(N)=O)C(=O)N[C@@H](C)C(=O)O [Peptide P-1, Ile-Ala-Arg-Gly-Asp-Met-Asn-Ala] (H-IARGDMNA-OH)
- Inhibitory potency compared with reference peptide: comparable with that of the Arg-Gly-Asp-Ser peptide
